# According to the supplement of paper PMC4635364:
# Where a name gives a salt, the structure may show the parent alone. The list shows a part of the results. Single values are uncertain here, since repeats match poorly.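 Cells: ReNCell VM human fetal ventral-midbrain neural progenitors, differentiated mitogen-free. Blinded raters compared doublecortin-stained (early neurons) or tyrosine hydroxylase-stained (dopaminergic neurons) images with untreated wells, where 0 means no change. After repeats and both raters were averaged, compounds scoring 2 or above became hits for retesting.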
# Columns and labels:
# [1] = tested on: ReNCell VM; experiment: neuronal differentiation score (DCX+ cell fraction vs untreated, manual image score) (score (-3 to 3)); higher = more neuronal differentiation; conditions: 2 uM, 2 weeks
# [2] = tested on: ReNCell VM; experiment: dopaminergic neuron differentiation score (TH+ cell fraction vs untreated, manual image score) (score (0 to 3)); higher = more TH+ dopaminergic neuron differentiation; conditions: 2 uM, 4 weeks, BDNF 10 ng/ml + GDNF 10 ng/ml
smiles,measurement,setting,value
CC(=O)O[C@@]12CO[C@@H]1C[C@H](O)[C@@]1(C)C(=O)[C@H](O)C3=C(C)[C@@H](OC(=O)[C@H](O)[C@@H](NC(=O)OC(C)(C)C)c4ccccc4)C[C@@](O)([C@@H](OC(=O)c4ccccc4)[C@H]21)C3(C)C [Docetaxel],neuronal differentiation score,[1]; library: Prestwick,inactive: 0
same,dopaminergic neuron differentiation score,[2]; library: Prestwick,inactive: 0
Cn1nnc2c(C(N)=O)ncn2c1=O,neuronal differentiation score,[1]; library: Spectrum,inactive: 0
same,dopaminergic neuron differentiation score,[2]; library: Spectrum,inactive: 0
O=c1oc2cc(O)ccc2cc1-c1ccc2c(c1)OCCO2,neuronal differentiation score,[1]; library: Natural,inactive: 0
same,dopaminergic neuron differentiation score,[2]; library: Natural,inactive: 0
Cc1ncc([N+](=O)[O-])n1C,neuronal differentiation score,[1]; library: Spectrum,inactive: 0
same,dopaminergic neuron differentiation score,[2]; library: Spectrum,inactive: 0
"C[C@]12CCC(=O)C=C1CC[C@H]1[C@@H]3CC[C@](O)(C(=O)CO)[C@@]3(C)C[C@@H]3OC312 (stereo in doubt) [17,21-dihydroxy-9,11-epoxy-pregn-4-ene-3,20-dione]",neuronal differentiation score,[1]; library: Natural,inactive: 1
same,dopaminergic neuron differentiation score,[2]; library: Natural,inactive: 0
O=C(CCCN1CCC(O)(c2ccc(Br)cc2)CC1)c1ccc(F)cc1,neuronal differentiation score,[1]; library: Spectrum,active: 2
same,dopaminergic neuron differentiation score,[2]; library: Spectrum,inactive: 0
CCCCOc1cc(C(=O)OCCN(CC)CC)ccc1N,neuronal differentiation score,[1]; library: Spectrum,inactive: 0
same,dopaminergic neuron differentiation score,[2]; library: Spectrum,active: 3
CN(C)[C@@H]1C(O)=C(C(=O)NCNCCCC[C@H](N)C(=O)O)C(=O)[C@@]2(O)C(O)=C3C(=O)c4c(O)cccc4[C@@](C)(O)[C@H]3C[C@@H]12 [Lymecycline],neuronal differentiation score,[1]; library: Prestwick,inactive: 0
same,dopaminergic neuron differentiation score,[2]; library: Prestwick,inactive: 0
O=C(O)Cc1nn(Cc2ccc(Br)cc2F)c(=O)c2ccccc12 [Statil],neuronal differentiation score,[1]; library: Tocriscreen,inactive: 0
same,dopaminergic neuron differentiation score,[2]; library: Tocriscreen,inactive: 0
Cc1ncc([N+](=O)[O-])n1CCO,neuronal differentiation score,[1]; library: Spectrum,inactive: 1
same,dopaminergic neuron differentiation score,[2]; library: Spectrum,inactive: 0
O=C1CCc2cc(OCCCCc3nnnn3C3CCCCC3)ccc2N1,neuronal differentiation score,[1]; library: Spectrum,inactive: 0
same,dopaminergic neuron differentiation score,[2]; library: Spectrum,inactive: 0
COc1c2[nH]c3occc3c(OC)c-2ccc1=O [Haplopine],neuronal differentiation score,[1]; library: Phytochemical,inactive: 0
same,dopaminergic neuron differentiation score,[2]; library: Phytochemical,inactive: 0
CN(C)CCOC(c1ccccc1)c1ccccc1.Cn1c(=O)c2[nH]c(Cl)nc2n(C)c1=O [Dimenhydrinate],neuronal differentiation score,[1]; library: Prestwick,inactive: 0
same,dopaminergic neuron differentiation score,[2]; library: Prestwick,inactive: 0
NO [Hydroxylamine hydrochloride],neuronal differentiation score,[1]; library: LOPAC,inactive: 0
same,dopaminergic neuron differentiation score,[2]; library: LOPAC,inactive: 0
CC(Oc1c(Cl)cccc1Cl)C1=NCCN1 (stereo unspecified) [Lofexidine],neuronal differentiation score,[1]; library: Prestwick,inactive: 0
same,dopaminergic neuron differentiation score,[2]; library: Prestwick,inactive: 0
CCC(C)(CN(C)C)OC(=O)c1ccccc1 (stereo unspecified) [Amyleine hydrochloride],neuronal differentiation score,[1]; library: Prestwick,inactive: 0
same,dopaminergic neuron differentiation score,[2]; library: Prestwick,inactive: 0
O=c1cc(N2CCOCC2)oc2c1ccc1ccccc12,neuronal differentiation score,[1]; library: Tocriscreen,inactive: 0
same,dopaminergic neuron differentiation score,[2]; library: Tocriscreen,inactive: 0
O=C(O)[C@@H]1CCCN1 [L-Proline],neuronal differentiation score,[1]; library: Phytochemical,inactive: 0
same,dopaminergic neuron differentiation score,[2]; library: Phytochemical,inactive: 0
CC(=O)N(CC(O)CN(C(C)=O)c1c(I)c(C(=O)NCC(O)CO)c(I)c(C(=O)NCC(O)CO)c1I)c1c(I)c(C(=O)NCC(O)CO)c(I)c(C(=O)NCC(O)CO)c1I (stereo unspecified),neuronal differentiation score,[1]; library: Spectrum,inactive: 1
same,dopaminergic neuron differentiation score,[2]; library: Spectrum,inactive: 0
CCN(CC)CC(=O)Nc1c(C)cccc1C,neuronal differentiation score,[1]; library: Spectrum,inactive: 0
same,dopaminergic neuron differentiation score,[2]; library: Spectrum,inactive: 0
NC1CONC1=O (racemic) [DL-Cycloserine],neuronal differentiation score,[1]; library: LOPAC,inactive: 0
same,dopaminergic neuron differentiation score,[2]; library: LOPAC,inactive: 0
CCN(CC)CCNC(=O)c1cc(Br)c(N)cc1OC,neuronal differentiation score,[1]; library: Spectrum,inactive: 0
same,dopaminergic neuron differentiation score,[2]; library: Spectrum,inactive: 0
CN(C)CCc1c[nH]c2ccc(Cn3cncn3)cc12,neuronal differentiation score,[1]; library: Spectrum,inactive: 1
same,dopaminergic neuron differentiation score,[2]; library: Spectrum,inactive: 0
CC[C@H](/C=C/[C@@H](C)[C@H]1CC[C@H]2[C@@H]3CCC4=CC(=O)CC[C@]4(C)[C@H]3CC[C@]12C)C(C)C,neuronal differentiation score,[1]; library: Spectrum,inactive: 0
same,dopaminergic neuron differentiation score,[2]; library: Spectrum,inactive: 0
O=C1C(O)=C([C@H]2CC[C@H](c3ccc(Cl)cc3)CC2)C(=O)c2ccccc21 [Atovaquone],neuronal differentiation score,[1]; library: Prestwick,inactive: 0
same,dopaminergic neuron differentiation score,[2]; library: Prestwick,inactive: 0
C=C1CC[C@H](O)C/C1=C/C=C1\CCC[C@]2(C)[C@@H]([C@H](C)CCCC(C)C)CC[C@@H]12,neuronal differentiation score,[1]; library: Spectrum,inactive: 0
same,dopaminergic neuron differentiation score,[2]; library: Spectrum,inactive: 0
Cn1c(=O)c2c(ncn2CC(=O)O)n(C)c1=O [Acefylline],neuronal differentiation score,[1]; library: Prestwick,inactive: 0
same,dopaminergic neuron differentiation score,[2]; library: Prestwick,inactive: 0
CCN1CCC[C@H]1CNC(=O)c1c(OC)ccc(Br)c1OC [Remoxipride hydrochloride],neuronal differentiation score,[1]; library: Tocriscreen,inactive: 0
same,dopaminergic neuron differentiation score,[2]; library: Tocriscreen,inactive: 1
"COC1=C(OC)C(=O)c2ccccc2C1=O [2,3-Dimethoxy-1,4-naphthoquinone]",neuronal differentiation score,[1]; library: LOPAC,inactive: 0
same,dopaminergic neuron differentiation score,[2]; library: LOPAC,inactive: 0
CCOC(=O)C1=C(N)Oc2ccc(Br)cc2C1C(C#N)C(=O)OCC (stereo unspecified),neuronal differentiation score,[1]; library: Tocriscreen,inactive: 0
same,dopaminergic neuron differentiation score,[2]; library: Tocriscreen,active: 3
CNCC[C@@H](Oc1ccc(C(F)(F)F)cc1)c1ccccc1 [R-(-)-Fluoxetine hydrochloride],neuronal differentiation score,[1]; library: LOPAC,inactive: 0
same,dopaminergic neuron differentiation score,[2]; library: LOPAC,inactive: 0
CC(=O)Oc1cc2c(s1)CCN(C(C(=O)C1CC1)c1ccccc1F)C2 (stereo unspecified),neuronal differentiation score,[1]; library: Spectrum,inactive: 0
same,dopaminergic neuron differentiation score,[2]; library: Spectrum,inactive: 0
CC(C)NCC(O)c1ccc(O)c(O)c1 (stereo not drawn) [S(+)-Isoproterenol (+)-bitartrate],neuronal differentiation score,[1]; library: LOPAC,inactive: 1
same,dopaminergic neuron differentiation score,[2]; library: LOPAC,inactive: 0
CC(C)(C)NCC(O)c1ccc(O)c(CO)c1 (stereo unspecified) [Albuterol hemisulfate],neuronal differentiation score,[1]; library: LOPAC,inactive: 0
same,dopaminergic neuron differentiation score,[2]; library: LOPAC,inactive: 0
O=C1OC(=O)[C@H]2[C@@H]1[C@@H]1CC[C@H]2O1 [Norcantharidin],neuronal differentiation score,[1]; library: LOPAC,inactive: -2
same,dopaminergic neuron differentiation score,[2]; library: LOPAC,inactive: 0
CC(C)CN(C)c1nc(N)c(C(=O)N=C(N)N)nc1Cl [5-(N-Methyl-N-isobutyl)amiloride],neuronal differentiation score,[1]; library: LOPAC,inactive: 0
same,dopaminergic neuron differentiation score,[2]; library: LOPAC,inactive: 0
O=C(Nc1cccc2c(=O)cc(-c3nnn[nH]3)oc12)c1ccc(OCCCCc2ccccc2)cc1 [Pranlukast],neuronal differentiation score,[1]; library: Prestwick,inactive: 0
same,dopaminergic neuron differentiation score,[2]; library: Prestwick,inactive: 0
COc1ccc(-c2cc(=O)c3c(OC)c(OC)c(OC)c(OC)c3o2)cc1,neuronal differentiation score,[1]; library: Spectrum,inactive: 0
same,dopaminergic neuron differentiation score,[2]; library: Spectrum,inactive: 0
